According to PMC11183229:
These are yes or no findings as the source states them, for the method shown. In cells and extracts the contact can be indirect. Some entries that bind do so weakly or less than the wild type. Sequences can lack the tags named with a protein.

Protein sequences, listed by entry. Tags and fused reporters are not part of them.
UniProt P21279: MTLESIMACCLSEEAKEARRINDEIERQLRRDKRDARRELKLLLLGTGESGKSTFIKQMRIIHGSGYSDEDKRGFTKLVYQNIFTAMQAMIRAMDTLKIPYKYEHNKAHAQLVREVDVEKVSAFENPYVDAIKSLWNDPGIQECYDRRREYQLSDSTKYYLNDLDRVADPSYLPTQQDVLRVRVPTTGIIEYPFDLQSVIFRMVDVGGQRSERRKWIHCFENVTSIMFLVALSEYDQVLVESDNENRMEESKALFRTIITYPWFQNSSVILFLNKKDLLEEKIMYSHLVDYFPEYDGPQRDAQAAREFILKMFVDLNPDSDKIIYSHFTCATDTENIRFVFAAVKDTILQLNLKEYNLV

B1: HA-tagged TMC6 (protein, UniProt Q7TN60 1-810)
chain: MAQSLALALDVPETTGDEGLEPSPYEESEVHDSFHQLIQEQSLRVAEEGLELLPLGLGRGDQTLPGLEGAPALSSATLRILASMPSRTIGRSRGAIISQYYNRTVRLRRRSSRPLLGNVVPSARPSLRLYDLELDSTILEEDEKRSLLVKELQGLSAAQRDHMVRNMPLSLGEKRCLREKSWSPKGKRRHLQGRSGAFSCCSRLRYTCMLALHSLGLALLSGLYAARPWRYALKQIGGQFGSSVLSYFLFLKTLLAFNALMLLPLLAFLVGVQAAFPPDPAGPVPTFSGLELLTGGGRFTHTVMYYGYYSNSTLSPSCDAPREGGQCSPRLGSLPYNMPLAYLFTMGATFFLTCIILVYSMSHSFGESYRVGSTKGIHALTVFCSWDYKVTQKRASRVQQDSICTQLKELLAEWHLRKRPRSVCGQLRQVVVLGLGWLLCLGSTMGCTVAVLTFSEVMIQRPASGGQGVEALALPLVVSVLNLGASYLFRGLATLERHDSPVLEVYMAICRNLILKMAVLGVLCYHWLGRRVATLQGQCWEDFVGQELYRFMVVDFIFMLLDSLFGELVWRLISEKKLKRGQKPEFDIARNVLDLIYGQTLTWLGVLFSPLLPAVQILRLLFLFHIKKASLMANCQAPRRPWLASHMSTVFLTLLCFPSFLGAAVFLCYAVWQVRPSSTCGPFRTLNTMYEAGTVWVRRLEHAGSGASWLPWLHHFLVENTFFLFLASALLLAVIYFNIQVVKGQRKVICLLKEQIRNEGEDKIFLINKLHSVYEEEGRSRPGRTQDATEPPAWHEDGGDQKEPCNPRSP

How the values were obtained:
[1] = biological target: T1, HA-tagged TMC6 (mouse) (UniProt Q7TN60); experiment: co-IP; reverse IP with antibody against HA from lysate of ND7/23 cells overexpressing HA-TMC6 and FLAG-tagged Gαq; immunoblot against FLAG
T1 sequence: B1 chain

[2] = biological target: FLAG-tagged Gαq (UniProt P21279); experiment: co-IP; IP with antibody against FLAG from lysate of ND7/23 cells overexpressing Gαq-FLAG and HA-TMC6 or a deletion form; immunoblot against HA
[3] = biological target: FLAG-tagged Gαq (UniProt P21279); experiment: co-IP; IP with antibody against FLAG from lysate of ND7/23 cells overexpressing Gαq-FLAG, HA-TMC6 and the blocking peptide amino acids 780–810 (competition)

Row | Molecule | binding [1] | binding [2] | binding [3]
1 | FLAG-tagged Gαq (from UniProt P21279 1-359) | binds | – | –
2 | B1 | – | binds | binds
3 | SRPGRTQDATEPPAWHEDGGDQKEPCNPRSP (peptide, UniProt Q7TN60 780-810) [polypeptide amino acids 780–810 of TMC6] | – | – | binds
